# No constants are given. Whether binding was seen depends on the method and setting. Binding seen in cells or lysates may run through a third protein. These calls come from enrichment with a bait or labelling near it, and not all partners need be listed. A no says only that the protein was not detected with the bait.
# Biological target: Drep-2^GFP (D. melanogaster)
# Assay: affinity purification with mass spectrometry; Drep-2^GFP isolated from fly head lysates (0.4% DOC, 1% Triton) on GFP-Trap agarose beads, 60 min at 4°C; controls: plain beads and GFP-negative wild-type lysate; triplicates, label-free quantification, FDR 1, 5 or 10%
row,binding,Binder
1,binds,"Argonaute-2 (protein, UniProt Q9VUQ5 1-1214) MGKKDKNKKGGQDSAAAPQPQQQQKQQQQRQQQPQQLQQPQQLQQPQQLQQPQQQQQQQPHQQQQQSSRQQPSTSSGGSRASGFQQGGQQQKSQDAEGWTAQKKQGKQQVQGWTKQGQQGGHQQGRQGQDGGYQQRPPGQQQGGHQQGRQGQEGGYQQRPPGQQQGGHQQGRQGQEGGYQQRPSGQQQGGHQQGRQGQEGGYQQRPPGQQQGGHQQGRQGQEGGYQQRPSGQQQGGHQQGRQGQEGGYQQRPPGQQQGGHQQGRQGQEGGYQQRPPGQQQGGHEQGRQGQEGGYQQRPSGQQQGGHQQGRQGQEGGYQQRPSGQQQGGHQQGRQGQEGGYQQRPSGQQQGGHQQGRQGQEGGYQQRPPGQQPNQTQSQGQYQSRGPPQQQQAAPLPLPPQPAGSIKRGTIGKPGQVGINYLDLDLSKMPSVAYHYDVKIMPERPKKFYRQAFEQFRVDQLGGAVLAYDGKASCYSVDKLPLNSQNPEVTVTDRNGRTLRYTIEIKETGDSTIDLKSLTTYMNDRIFDKPMRAMQCVEVVLASPCHNKAIRVGRSFFKMSDPNNRHELDDGYEALVGLYQAFMLGDRPFLNVDISHKSFPISMPMIEYLERFSLKAKINNTTNLDYSRRFLEPFLRGINVVYTPPQSFQSAPRVYRVNGLSRAPASSETFEHDGKKVTIASYFHSRNYPLKFPQLHCLNVGSSIKSILLPIELCSIEEGQALNRKDGATQVANMIKYAATSTNVRKRKIMNLLQYFQHNLDPTISRFGIRIANDFIVVSTRVLSPPQVEYHSKRFTMVKNGSWRMDGMKFLEPKPKAHKCAVLYCDPRSGRKMNYTQLNDFGNLIISQGKAVNISLDSDVTYRPFTDDERSLDTIFADLKRSQHDLAIVIIPQFRISYDTIKQKAELQHGILTQCIKQFTVERKCNNQTIGNILLKINSKLNGINHKIKDDPRLPMMKNTMYIGADVTHPSPDQREIPSVVGVAASHDPYGASYNMQYRLQRGALEEIEDMFSITLEHLRVYKEYRNAYPDHIIYYRDGVSDGQFPKIKNEELRCIKQACDKVGCKPKICCVIVVKRHHTRFFPSGDVTTSNKFNNVDPGTVVDRTIVHPNEMQFFMVSHQAIQGTAKPTRYNVIENTGNLDIDLLQQLTYNLCHMFPRCNRSVSYPAPAYLAHLVAARGRVYLTGTNRFLDLKKEYAKRTIVPEFMKKNPMYFV"
2,binds,"Caprin (protein, UniProt Q9I7D3 1-961) MPSAANTATVTAAIATTVAASASNTNNNSVSKEKRSSIISLGGSVIPGTAVAAGAGVATTNGQSNSSAAATADGSQTDLASSNNNGNAAKSKANAVSAAAVVPEPYNPLKQLLVTIEHKIRNLEKRKTKLESYRAIQSSGKELSGDQASAVAKYDAVLANLEFARELAKHIQQQSKEAEKEQKKQARKDNLAKTIAETAKIREVLIIQNVLNCFNDDQVRSDFLNGENGAKKLENTELELLEKFFIETQTRRPETADDVSFIATAQKSAELFYSTINARPKSFGEVSFEKLRSLFQQIQDSGYLDKYYLVPLAENAVANSTDSGTGSGDGESGDLLNDGSGELDAELPSEPSARNSLEEGLDKLHLGVQAELDQHQSYQQQQERPSHLLEPQHQRAPSLEHQQNSMVQQVSTQVYQAAPQAGGTTTPVHVLYAPAPPAQQQPQQPPPHPHQLLSSPVNLQALQTGTAAPPAQQQQPHPTHFAPNVRAVEQNYFKQPPQHPQGPGIQAPQTPQQQQFMQHSRPLAEVLGTGRFHFLQDSELDNPEALAPPPPTNQGLVFEQQPQQPNHVEEPTQAILTLTFTNQSFPSQQPQPQQQGPQQQQQLFSPVLIHEQRQQPPQQQPQPMLIMPRLPTQQPQQPAPQGIGMQAGDVTSGFSYENAVVSYEQQIQQQLKQQQQQQQQQQQNLQQLDEPSSVNSSSSVGAGGDVENNEWHARNNDTNAAATAALTNVLKGETTQATPPAPPTKWSSEMNAMSSAASNGSSNTSHKQEWATPRDHSTGGGNSGYADNNESNNHWNNSQGDGRRNSGNYQRRGGDRDNRDRDQGGRGDERRNGGDRGNYRSRQYGNSSNTNGRNSGNSSGVYFRNNESGNGGGNNYYQNGGGGGGTYNKESRYESSGGGGGSYRGQRGGNQQRNVNGSYGGGRPMGDRGRGGAGNQGGGGGGYINRQNQSQRMPLGLENKN"
3,no binding,"DmGluRA (receptor, UniProt P91685 26-976) KSPSNTHTQDSVSVSLPGDIILGGLFPVHEKGEGAPCGPKVYNRGVQRLEAMLYAIDRVNNDPNILPGITIGVHILDTCSRDTYALNQSLQFVRASLNNLDTSGYECADGSSPQLRKNASSGPVFGVIGGSYSSVSLQVANLLRLFHIPQVSPASTAKTLSDKTRFDLFARTVPPDTFQSVALVDILKNFNWSYVSTIHSEGSYGEYGIEALHKEATERNVCIAVAEKVPSAADDKVFDSIISKLQKKPNARGVVLFTRAEDARRILQAAKRANLSQPFHWIASDGWGKQQKLLEGLEDIAEGAITVELQSEIIADFDRYMMQLTPETNQRNPWFAEYWEDTFNCVLTSLSVKPDTSNSANSTDNKIGVKAKTECDDSYRLSEKVGYEQESKTQFVVDAVYAFAYALHNLHNDRCNTQSDQTTETRKHLQSESVWYRKISTDTKSQACPDMANYDGKEFYNNYLLNVSFIDLAGSEVKFDRQGDGLARYDILNYQRQENSSGYQYKVIGKWFNGLQLNSETVVWNKETEQPTSACSLPCEVGMIKKQQGDTCCWICDSCESFEYVYDEFTCKDCGPGLWPYADKLSCYALDIQYMKWNSLFALIPMAIAIFGIALTSIVIVLFAKNHDTPLVRASGRELSYTLLFGILVCYCNTFALIAKPTIGSCVLQRFGIGVGFSIIYSALLTKTNRISRIFHSASKSAQRLKYISPQSQVVITTSLIAIQVLITMIWMVVEPPGTRFYYPDRREVILKCKIQDMSFLFSQLYNMILITICTIYAIKTRKIPENFNESKFIGFTMYTTCIIWLAFVPIYFGTGNSYEVQTTTLCISISLSASVALVCLYSPKVYILVFHPDKNVRKLTMNSTVYRRSAAAVAQGAPTSSGYSRTHAPGTSALTGGAVGTNASSSTLPTQNSPHLDEASAQTNVAHKTNGEFLPEVGERVEPICHIVNK"

# Source: publication PMC4229683
